Results deposited as PubChem BioAssay AID1508588 (Peter MacCallum Cancer Centre, 2020).
Screen: 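Which gene losses make BRAF-mutant melanoma cells more responsive to vemurafenib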 (primary screen). Cells: human WM266.4 melanoma cells (BRAF V600 mutant). Reagent: siRNA pool against human genes, 40 nM. Timing: 96 h from transfection to read-out. Challenge: vemurafenib 300 nM (about IC25), added 48 h after transfection, for 48 h; comparison arm got DMSO vehicle only. Detection: 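Ratios to non-targeting siRNA for cell gain, counted as DAPI nuclei after minus before drug and averaged over two replicates, and for absorbance-read medium lactate per cell; both binned into fold-change classes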. Reading the numbers: cell gain with vemurafenib: higher = more cell gain than with non-targeting siRNA; lactate per cell with vemurafenib: higher = more lactate made per cell. Rule for the call: 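a knock-down counts as enhancing when its fold-change classes with vehicle and with vemurafenib, taken together, show a stronger drug effect on cell gain or lactate per cell; exact class pairs not stated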. Calls: active = enhances vemurafenib effect; inactive = no enhancement seen.
In all, the deposit lists about 18,000 reagents; below is a random part of them. 790 of them (4.4%) count as active. 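Calls rest on a combination of fold-change classes in drug and vehicle arms, not all shown here.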 No sequences are given here.

no.	gene	cell gain with vemurafenib	lactate per cell with vemurafenib	Call
1	SHROOM1	0.26	1.16	inactive
2	MAGEE2	0.56	1.48	inactive
3	GREB1	0.72	0.36	inactive
4	TNFSF13B	0.47	1.06	inactive
5	PKP4	0.6	0.7	inactive
6	C1RL	0.66	1.06	inactive
7	DLK2	1.12	0.49	inactive
8	H3-3A	0.87	0.26	inactive
9	RPSA	0.01	2.92	inactive
10	ARID1B	0.61	1	inactive
11	APOM	0.49	0.93	inactive
12	CT47A1	0.94	0.3	active
13	MFAP4	0.78	1.44	inactive
14	WNT9A	0.69	1.38	inactive

5 of these entries, reformatted:
gene,cell gain with vemurafenib,lactate per cell with vemurafenib,Call
MAGEE2,0.56,1.48,inactive
GREB1,0.72,0.36,inactive
TNFSF13B,0.47,1.06,inactive
PKP4,0.6,0.7,inactive
C1RL,0.66,1.06,inactive

Further reagents:
no.	gene	cell gain with vemurafenib	lactate per cell with vemurafenib	Call
15	DLEC1	0.89	0.7	inactive
16	PXMP2	0.46	1.12	inactive
17	RPS6KA2	-0.07	1.36	inactive
18	MT1B	0.7	0.78	inactive
19	ZNF143	0.6	1.06	inactive
20	AMPD2	0.36	1.7	inactive
21	RTL10	-0.1	1.18	inactive
22	ZNF706	0.44	0.96	inactive
23	CCDC57	0.97	0.79	inactive
24	CDCP2	0.82	1.08	inactive
25	CDIPT	0.62	1.27	inactive
26	SDS	0.6	0.78	inactive
27	EMC2	0.62	0.58	inactive
28	DUSP10	0.54	1.4	inactive
29	PPM1B	0.79	0.4	inactive
30	TOGARAM2	0.38	0.57	inactive
31	GJD4	0.68	0.61	inactive
32	LRP8	0.76	0.56	inactive
33	SUDS3	0.5	0.38	inactive
34	ZCCHC17	0.97	0.41	inactive
